# Data as given in PubChem BioAssay AID1224830 (NIAID, 2016).
# Purpose: 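Genes whose knock-down alters the TNF-alpha reporter response to LPS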 (primary screen)
# Cell system: human THP-1 monocytic leukaemia cells, TNF dual-luciferase reporter clone, PMA-differentiated to macrophage-like cells
# Reagent: siRNA pool against human genes, 50 nM
# Time to read-out: LPS for 4 h, given about 3 days after siRNA transfection
# Treatment: bacterial LPS (TLR4 ligand), 10 ng/ml
# Read-out: 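Ratio of firefly to renilla light, scaled to the plate median and expressed as a robust z-score per replicate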
# Scale: TNF reporter robust z-score: higher = stronger TNF reporter response to LPS
# Rule for the call: 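Each well counts as active if its z-score is over 2.8 or under -1.5; controls are left without a call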
# Here is a random part of about 18,000 reagents. About 2,900 of them (16%) count as active. 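Calls are made per well; low scores hint the gene aids the LPS response, high scores that it dampens it.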 Entries without a mark were called inactive. Repeated entries: four replicate wells of each siRNA pool. Reagent sequences are not shown.
gene knocked down,TNF reporter robust z-score
ZIC2,-0.8
ZIC2,-0.54
ZIC2,-1.18
ZIC2,0.24
ATG12,0.62
ATG12,1.2
ATG12,1.1
ATG12,1.95
PEX16,-0.19
PEX16,-0.7
PEX16,-0.43
PEX16,-0.54
NPPA,0.03
NPPA,3.26 (active)
NPPA,0.09
NPPA,0.39
BTN3A3,1.34
BTN3A3,1.36
BTN3A3,0.06
BTN3A3,1.82
CCDC9,-1.45
CCDC9,-1.39
CCDC9,-1.7 (active)
CCDC9,-1.25
DTD1,-1.52 (active)
DTD1,-0.46
DTD1,-1.59 (active)
DTD1,-0.25
THYN1,-1.46
THYN1,0.88
THYN1,-0.86
THYN1,0.23
HDAC10,-0.46
HDAC10,-0.04
HDAC10,-0.4
HDAC10,0.53
BIN3,-0.83
BIN3,-0.45
BIN3,-1
BIN3,-1.3
C1orf220,2.02
C1orf220,1.3
C1orf220,1.81
C1orf220,0.62
TMEM234,0.91
TMEM234,-0.17
TMEM234,1.08
TMEM234,-0.37
CLDN8,2.3
CLDN8,1.41
CLDN8,2.95 (active)
CLDN8,0.94
DRAM2,-0.98
DRAM2,-1.24
DRAM2,-0.64
DRAM2,-0.76
TBC1D24,-0.79
TBC1D24,1.23
TBC1D24,0.29
TBC1D24,-0.72
SLC25A18,-1.18
SLC25A18,-0.38
SLC25A18,-0.6
WBP1L,0.74
WBP1L,0
WBP1L,-0.36
WBP1L,0.12
PNKP,1.22
PNKP,0.78
PNKP,2.46
PNKP,1.06
ADAM23,-0.86
ADAM23,2.61
ADAM23,0.88
ADAM23,1.27
PSMA4,-1.39
PSMA4,-1.34
PSMA4,-1.59 (active)
PSMA4,-1.81 (active)
TRIM71,3.32 (active)
TRIM71,-0.46
TRIM71,-0.05
TRIM71,-1.61 (active)
IFNA17,-0.01
IFNA17,-0.33
IFNA17,-0.88
IFNA17,-0.36
CEP120,2.68
CEP120,1.79
CEP120,1.12
CEP120,1.33
DRAM1,-0.51
DRAM1,-1.38
DRAM1,-1.44
DRAM1,-1.36
OR6Y1,14.9 (active)
OR6Y1,0.44
OR6Y1,0.78
OR6Y1,-1.13
DYNLT2,0.16
DYNLT2,1.84
DYNLT2,0.74
DYNLT2,0.41
ZNF467,0.02
ZNF467,0.64
ZNF467,-0.83
ZNF467,0.59
CIDEB,-0.88
CIDEB,-0.82
CIDEB,-1.11
CIDEB,-0.22

Part of the list above in another layout:
PSMA4 — TNF reporter robust z-score: -1.34
PSMA4 — TNF reporter robust z-score: -1.59 (active)
PSMA4 — TNF reporter robust z-score: -1.81 (active)
TRIM71 — TNF reporter robust z-score: 3.32 (active)
TRIM71 — TNF reporter robust z-score: -0.46
TRIM71 — TNF reporter robust z-score: -0.05
TRIM71 — TNF reporter robust z-score: -1.61 (active)
IFNA17 — TNF reporter robust z-score: -0.01
IFNA17 — TNF reporter robust z-score: -0.33
IFNA17 — TNF reporter robust z-score: -0.88
